PubChem BioAssay AID1224830 – NIAID – 2016

- Aim: 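Host factors that control LPS-induced TNF expression in human macrophages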 (primary screen)
- Cells: human THP-1 monocytic leukaemia cells, TNF dual-luciferase reporter clone, PMA-differentiated to macrophage-like cells
- Reagent: siRNA pool against human genes, 50 nM
- Time to read-out: LPS for 4 h, given about 3 days after siRNA transfection
- Treatment: bacterial LPS (TLR4 ligand), 10 ng/ml
- Measured: 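Ratio of firefly to renilla light, scaled to the plate median and expressed as a robust z-score per replicate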
- Scale: TNF reporter robust z-score: higher = stronger TNF reporter response to LPS
- Call rule: 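a well is active when its z-score exceeds 2.8 or falls below -1.5; control wells carry no call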
Here is one part, drawn at random, of about 18,000 deposited reagents. About 2,900 of them (16%) count as active. 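Calls are made per well; low scores hint the gene aids the LPS response, high scores that it dampens it.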 Unmarked entries are inactive. Repeated entries: four replicate wells of each siRNA pool.

Gene | TNF reporter robust z-score
SLC39A2 | -1.09
SLC39A2 | -0.12
SLC39A2 | -0.79
SLC39A2 | 0.02
QRICH1 (glutamine rich 1) | -0.78
QRICH1 (glutamine rich 1) | -1.17
QRICH1 (glutamine rich 1) | -1.11
QRICH1 (glutamine rich 1) | -0.87
TLK1 (tousled like kinase 1) | -0.45
TLK1 (tousled like kinase 1) | 0.11
TLK1 (tousled like kinase 1) | -0.2
TLK1 (tousled like kinase 1) | -0.72
RNF8 (ring finger protein 8) | -0.28
RNF8 (ring finger protein 8) | 0.05
RNF8 (ring finger protein 8) | 0.57
RNF8 (ring finger protein 8) | 1.04
SULT1C4 (sulfotransferase family 1C member 4) | 0.01
SULT1C4 (sulfotransferase family 1C member 4) | 0.41
SULT1C4 (sulfotransferase family 1C member 4) | -0.05
SULT1C4 (sulfotransferase family 1C member 4) | 0.43
ATP6V1E2 (ATPase H+ transporting V1 subunit E2) | 1.17
ATP6V1E2 (ATPase H+ transporting V1 subunit E2) | 1.22
ATP6V1E2 (ATPase H+ transporting V1 subunit E2) | 0.05
ATP6V1E2 (ATPase H+ transporting V1 subunit E2) | 1.66
CSNK1A1 (casein kinase 1 alpha 1) | -0.17
CSNK1A1 (casein kinase 1 alpha 1) | -0.53
CSNK1A1 (casein kinase 1 alpha 1) | -0.52
CSNK1A1 (casein kinase 1 alpha 1) | 1.04
CFAP58 (cilia and flagella associated protein 58) | -0.88
CFAP58 (cilia and flagella associated protein 58) | -0.73
CFAP58 (cilia and flagella associated protein 58) | 0.21
CFAP58 (cilia and flagella associated protein 58) | -0.62
MAGEA9B (MAGE family member A9B) | 0.21
MAGEA9B (MAGE family member A9B) | 0.63
MAGEA9B (MAGE family member A9B) | 0.96
MAGEA9B (MAGE family member A9B) | 0.36
EXOC6 (exocyst complex component 6) | -0.3
EXOC6 (exocyst complex component 6) | 1.03
EXOC6 (exocyst complex component 6) | -1.1
EXOC6 (exocyst complex component 6) | 1.2
SNX4 (sorting nexin 4) | 0.21
SNX4 (sorting nexin 4) | -0.41
SNX4 (sorting nexin 4) | 0.24
SNX4 (sorting nexin 4) | -1.08
GCN1 (GCN1 activator of EIF2AK4) | -1.1
GCN1 (GCN1 activator of EIF2AK4) | -0.75
GCN1 (GCN1 activator of EIF2AK4) | 0.24
GCN1 (GCN1 activator of EIF2AK4) | 0.55
SLC35D2 | -1.42
SLC35D2 | -1.14
SLC35D2 | -0.79
SLC35D2 | -0.62
SH2D6 (SH2 domain containing 6) | -0.74
SH2D6 (SH2 domain containing 6) | 0.32
SH2D6 (SH2 domain containing 6) | 0.03
SH2D6 (SH2 domain containing 6) | -0.46
PRR23B (proline rich 23B) | 0.48
PRR23B (proline rich 23B) | -0.65
PRR23B (proline rich 23B) | 8.05 (active)
PRR23B (proline rich 23B) | -0.16
BCL2L12 (BCL2 like 12) | -1.1
BCL2L12 (BCL2 like 12) | -0.84
BCL2L12 (BCL2 like 12) | -0.02
BCL2L12 (BCL2 like 12) | -0.39
RTN3 (reticulon 3) | 0.44
RTN3 (reticulon 3) | 2.65
RTN3 (reticulon 3) | 2.93 (active)
RTN3 (reticulon 3) | -0.98
ASB4 (ankyrin repeat and SOCS box containing 4) | -0.59
ASB4 (ankyrin repeat and SOCS box containing 4) | -1.09
ASB4 (ankyrin repeat and SOCS box containing 4) | -0.16
ASB4 (ankyrin repeat and SOCS box containing 4) | -0.54
MRI1 (methylthioribose-1-phosphate isomerase 1) | -0.27
MRI1 (methylthioribose-1-phosphate isomerase 1) | 0.35
MRI1 (methylthioribose-1-phosphate isomerase 1) | 0.61
MRI1 (methylthioribose-1-phosphate isomerase 1) | 1.26
ZFP41 (ZFP41 zinc finger protein) | 1.24
ZFP41 (ZFP41 zinc finger protein) | 1.01
ZFP41 (ZFP41 zinc finger protein) | 0.75
ZFP41 (ZFP41 zinc finger protein) | 0.07
SEMA6B (semaphorin 6B) | 4.77 (active)
SEMA6B (semaphorin 6B) | 1.46
SEMA6B (semaphorin 6B) | -0.21
SEMA6B (semaphorin 6B) | 1.01
ID1 (inhibitor of DNA binding 1) | 0.5
ID1 (inhibitor of DNA binding 1) | 0.58
ID1 (inhibitor of DNA binding 1) | 0.82
ID1 (inhibitor of DNA binding 1) | 1.32
CDY1B (chromodomain Y-linked 1B) | -1.38
CDY1B (chromodomain Y-linked 1B) | -0.94
CDY1B (chromodomain Y-linked 1B) | -1.24
CDY1B (chromodomain Y-linked 1B) | -1.12
ERRFI1 (ERBB receptor feedback inhibitor 1) | 0.63
ERRFI1 (ERBB receptor feedback inhibitor 1) | 0.25
ERRFI1 (ERBB receptor feedback inhibitor 1) | -0.88
ERRFI1 (ERBB receptor feedback inhibitor 1) | -0.48
NMRAL1 (NmrA like redox sensor 1) | 0
NMRAL1 (NmrA like redox sensor 1) | 0.67
NMRAL1 (NmrA like redox sensor 1) | -1.21
NMRAL1 (NmrA like redox sensor 1) | -1.15
CCNB2 (cyclin B2) | -1.41
CCNB2 (cyclin B2) | -1.33
CCNB2 (cyclin B2) | -1.27
CCNB2 (cyclin B2) | -0.68
CYP11A1 (cytochrome P450 family 11 subfamily A member 1) | 0.87
CYP11A1 (cytochrome P450 family 11 subfamily A member 1) | 0.41
CYP11A1 (cytochrome P450 family 11 subfamily A member 1) | -0.06
CYP11A1 (cytochrome P450 family 11 subfamily A member 1) | 0.9
VWC2L (von Willebrand factor C domain containing 2 like) | -0.4
VWC2L (von Willebrand factor C domain containing 2 like) | -0.19
VWC2L (von Willebrand factor C domain containing 2 like) | -0.07
VWC2L (von Willebrand factor C domain containing 2 like) | -0.04
